Laboratory results: PubChem BioAssay AID1259279 (Sanger Institute, 2017)

- Assay: 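Find kinases whose loss works with colorectal cancer drugs to kill cells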 (primary screen)
- Cell system: LS180 human colorectal cancer cells
- Reagents: siRNA pool against human genes
- Challenge: anchor drug BYL719 at 1 µM, cetuximab at 5 µg/ml or trametinib at 10 nM, or DMSO vehicle only
- Detection: 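Viability as a fraction of non-targeting control and as a replicate-averaged robust z-score, with separate synergy scores for BYL719, cetuximab and trametinib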
- Direction: viability z-score, no drug: higher = more viable cells after knock-down; viability, no drug: higher = more viable cells
- Units: viability, no drug in fraction
- Call rule: 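Essential (active) calls need a no-drug viability z-score lower than -3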
- Meaning of the calls: active = essential (knock-down alone cuts viability); inactive = no change without drug
Shown is a random part of 794 reagents. Of all reagents, 11 (1.4%) got an active call. 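Calls reflect knock-down alone in the vehicle arm, not drug synergy.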 No viability above 1 is reported: the scale is capped. Further read-outs or replicates are left out here. The record does not give: the amount of reagent, the time to read-out.

CDC7 (cell division cycle 7): viability z-score, no drug = 0.86; viability, no drug = 1; call = inactive
ARID1A (AT-rich interaction domain 1A): viability z-score, no drug = 0.255; viability, no drug = 0.934; call = inactive
ROCK2 (Rho associated coiled-coil containing protein kinase 2): viability z-score, no drug = 0.86; viability, no drug = 1; call = inactive
PRKAR2B: viability z-score, no drug = -1.07; viability, no drug = 0.79; call = inactive
MARK2 (microtubule affinity regulating kinase 2): viability z-score, no drug = -0.561; viability, no drug = 0.845; call = inactive
PKN3 (protein kinase N3): viability z-score, no drug = 0.475; viability, no drug = 0.958; call = inactive
TP53 (tumor protein p53): viability z-score, no drug = 0.559; viability, no drug = 0.967; call = inactive
ADPGK (ADP dependent glucokinase): viability z-score, no drug = 0.261; viability, no drug = 0.935; call = inactive
NLK (nemo like kinase): viability z-score, no drug = -0.166; viability, no drug = 0.888; call = inactive
TTBK1 (tau tubulin kinase 1): viability z-score, no drug = -0.781; viability, no drug = 0.821; call = inactive
INSRR (insulin receptor related receptor): viability z-score, no drug = 0.418; viability, no drug = 0.952; call = inactive
PFKM (phosphofructokinase, muscle): viability z-score, no drug = -0.161; viability, no drug = 0.889; call = inactive
BCKDK (branched chain keto acid dehydrogenase kinase): viability z-score, no drug = -0.0475; viability, no drug = 0.901; call = inactive
MAP4K1 (mitogen-activated protein kinase kinase kinase kinase 1): viability z-score, no drug = -1.09; viability, no drug = 0.788; call = inactive
SCYL1 (SCY1 like pseudokinase 1): viability z-score, no drug = 0.86; viability, no drug = 1; call = inactive
DLG1 (discs large MAGUK scaffold protein 1): viability z-score, no drug = -0.241; viability, no drug = 0.88; call = inactive
STAG2 (STAG2 cohesin complex component): viability z-score, no drug = 0.86; viability, no drug = 1; call = inactive
SRPK3 (SRSF protein kinase 3): viability z-score, no drug = 0.86; viability, no drug = 1; call = inactive
EIF2AK4 (eukaryotic translation initiation factor 2 alpha kinase 4): viability z-score, no drug = 0.562; viability, no drug = 0.968; call = inactive
PRKCH (protein kinase C eta): viability z-score, no drug = -0.467; viability, no drug = 0.855; call = inactive
SRPK1 (SRSF protein kinase 1): viability z-score, no drug = -0.937; viability, no drug = 0.804; call = inactive
CDKN2C (cyclin dependent kinase inhibitor 2C): viability z-score, no drug = 0.309; viability, no drug = 0.94; call = inactive
MAP3K5 (mitogen-activated protein kinase kinase kinase 5): viability z-score, no drug = 0.377; viability, no drug = 0.947; call = inactive
MAP2K3 (mitogen-activated protein kinase kinase 3): viability z-score, no drug = -0.556; viability, no drug = 0.846; call = inactive
MAGI3: viability z-score, no drug = 0.462; viability, no drug = 0.957; call = inactive
DDR1 (discoidin domain receptor tyrosine kinase 1): viability z-score, no drug = 0.86; viability, no drug = 1; call = inactive
CDC42BPG (CDC42 binding protein kinase gamma): viability z-score, no drug = 0.86; viability, no drug = 1; call = inactive
CSNK1G1 (casein kinase 1 gamma 1): viability z-score, no drug = -0.348; viability, no drug = 0.868; call = inactive
MYLK3 (myosin light chain kinase 3): viability z-score, no drug = 0.618; viability, no drug = 0.974; call = inactive
IRAK2 (interleukin 1 receptor associated kinase 2): viability z-score, no drug = -0.0629; viability, no drug = 0.899; call = inactive
TGFBR2 (transforming growth factor beta receptor 2): viability z-score, no drug = 0.556; viability, no drug = 0.967; call = inactive
PRKACG (protein kinase cAMP-activated catalytic subunit gamma): viability z-score, no drug = 0.86; viability, no drug = 1; call = inactive
CHKB (choline kinase beta): viability z-score, no drug = 0.86; viability, no drug = 1; call = inactive
TBX3 (T-box transcription factor 3): viability z-score, no drug = 0.86; viability, no drug = 1; call = inactive
UHMK1 (U2AF homology motif kinase 1): viability z-score, no drug = -0.653; viability, no drug = 0.835; call = inactive
PRKAA1 (protein kinase AMP-activated catalytic subunit alpha 1): viability z-score, no drug = -0.662; viability, no drug = 0.834; call = inactive

Laid out differently: results already given.
gene,"viability z-score, no drug","viability, no drug",call
MAP2K3 (mitogen-activated protein kinase kinase 3),-0.556,0.846,inactive
MAGI3,0.462,0.957,inactive
DDR1 (discoidin domain receptor tyrosine kinase 1),0.86,1,inactive
CDC42BPG (CDC42 binding protein kinase gamma),0.86,1,inactive
CSNK1G1 (casein kinase 1 gamma 1),-0.348,0.868,inactive
